# Construct, isoform or probe ends are uncertain for at least one entry. For some of these results: At least one result comes from cells or an extract, where the contact may be indirect. For some of these results: Weaker means in comparison with the reference protein, sequence or condition of that experiment. For some of these results: At least one verdict was read from the data and is not stated in words by the source.
# Chains of the proteins cited; added tags and fusions are not shown.
# UniProt Q13285, whole entry: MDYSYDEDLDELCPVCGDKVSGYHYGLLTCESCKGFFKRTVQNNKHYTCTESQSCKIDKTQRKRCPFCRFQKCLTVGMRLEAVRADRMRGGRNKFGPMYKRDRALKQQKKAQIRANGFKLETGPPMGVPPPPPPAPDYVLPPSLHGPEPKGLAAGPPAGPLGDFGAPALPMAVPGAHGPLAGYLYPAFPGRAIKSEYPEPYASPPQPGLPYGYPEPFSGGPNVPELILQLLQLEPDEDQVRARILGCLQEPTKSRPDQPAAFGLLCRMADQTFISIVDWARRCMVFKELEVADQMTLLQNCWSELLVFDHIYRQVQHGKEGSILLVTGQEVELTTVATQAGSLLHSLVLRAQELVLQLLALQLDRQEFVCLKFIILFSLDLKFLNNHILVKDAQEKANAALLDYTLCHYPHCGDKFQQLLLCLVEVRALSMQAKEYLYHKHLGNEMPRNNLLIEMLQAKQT
# Experiments:
# [1] = molecular target: SF-1 (FLAG-tagged, overexpressed in KGN cells) (UniProt Q13285); experiment: EMSA supershift; conditions: nuclear extract 5 ug, supershifted by anti-FLAG, abolished by 200-fold cold probe; not given; EMSA as previously reported (ref 30); 5 ug KGN nuclear extract, 200-fold excess cold probe; protein in an extract; protein details: FLAG; label: radiolabel
# [2] = molecular target: SF-1 (FLAG-tagged, purified) (UniProt Q13285); experiment: EMSA; conditions: with purified Myc-FOXL2 WT, binding enhanced; not given; EMSA as previously reported (ref 30); 5 ug KGN nuclear extract, 200-fold excess cold probe; recombinant protein; protein details: FLAG; label: radiolabel
# [3] = molecular target: SF-1 (FLAG-tagged, overexpressed in KGN cells) (UniProt Q13285); experiment: EMSA; conditions: not given, EMSA as previously reported (ref 30), 5 ug KGN nuclear extract, 200-fold excess cold probe, protein in an extract, protein details: FLAG, label: radiolabel
sequence,measurement,setting,value
TGTCCCCCAAGGTCGCGGCAG (double strand) [AMH promoter SBE1 probe],binding result,[1],binds
same,binding result,[2],binds
same,binding result,"[3]; FOXL2 co-overexpressed, complex increased",binds
same,binding result,"[3]; FOXL2 knockdown (siRNA), complex greatly reduced",binds more weakly
